Publication PMC6439305 (iScience, 2019)

By UniProt entry, the sequences of proteins in these tests, tags left out.
UniProt P42866, whole entry: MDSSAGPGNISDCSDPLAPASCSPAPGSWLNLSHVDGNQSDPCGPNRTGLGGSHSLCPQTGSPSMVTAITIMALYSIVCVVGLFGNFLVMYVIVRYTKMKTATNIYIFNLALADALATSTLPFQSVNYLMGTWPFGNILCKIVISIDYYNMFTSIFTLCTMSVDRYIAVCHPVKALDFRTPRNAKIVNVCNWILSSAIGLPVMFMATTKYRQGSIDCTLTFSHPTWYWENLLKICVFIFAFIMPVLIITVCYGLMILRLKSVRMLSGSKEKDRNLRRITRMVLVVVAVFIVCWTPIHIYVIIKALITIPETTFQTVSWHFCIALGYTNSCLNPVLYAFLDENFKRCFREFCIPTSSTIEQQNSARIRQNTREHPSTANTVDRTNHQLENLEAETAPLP

Molecular target: MOR-Venus (mu opioid receptor fused to Venus-YFP) (Mus musculus, UniProt P42866)
Experiment: Galphai2/Ggamma2 BRET2 dissociation assay, HEK293
Type: cell-based
Settings: agonist, 10 min stimulation

Question: `CO[C@]12CC[C@@]3(C[C@@H]1[C@](C)(O)C(C)(C)C)[C@H]1Cc4ccc(O)c5c4[C@@]3(CCN1CC1CC1)[C@H]2O5` [buprenorphine] was tested. Which EC50 did it give?
Answer: The EC50 was “for buprenorphine, which had significantly lower efficacy and potency than Met-Enk”.

Question: How did the EC50 turn out when `CN1CC[C@]23c4c5ccc(O)c4O[C@H]2[C@@H](O)C=C[C@H]3[C@H]1C5` [morphine] was run?
Answer: The EC50 was “Morphine in HEK293 cells showed efficient Gαi signaling”.
